The values that follow come from patent US20260234234A1.

In the assay the target is T1, Avitag_c-MYC_His6-tagged hIL-33 (Ser112-Thr270), QB10975 (human).
T1 sequence: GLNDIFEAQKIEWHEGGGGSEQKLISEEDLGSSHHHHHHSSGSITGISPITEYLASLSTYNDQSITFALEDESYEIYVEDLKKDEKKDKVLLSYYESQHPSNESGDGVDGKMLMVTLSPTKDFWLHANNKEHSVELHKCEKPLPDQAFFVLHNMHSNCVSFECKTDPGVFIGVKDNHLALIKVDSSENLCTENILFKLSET
The assay can be described thus: SPR.

These are yes or no findings as the source states them, for the method shown. Some results given as binding are weak or reduced against the parent protein; the word gives no strength. Sequences can lack the tags named with a protein.

B1: anti-hIL-33 antibody QB11119 (antibody, human IgG1, kappa, L234A L235A, V domains shown)
VH: EVQLLESGGGLVQPGGSLRLSCAASGFTFYSSAMSWVRQTQGKGLEWVSTISSGGSNTYYPDSVKGRFTISRDNSKNTLYLQMNSLGAEDTAVYYCASAYYGRRYDAMDYWGQGTLVTVSS
VL: DVVMTQSPPSLPVTLGQSASISCKSSKSLLHSNANTYLYWFQQRPGQSPQLLIYRMSNLASGVPDRFSGSGSGTDFTLKISRVEAEDVGVYYCMQHLENPYTFGQGTKVEIKR
On to B1, for which the binding entry is “binds”.
